# PubChem BioAssay AID504804, Drosophila RNAi Screening Center – 2011
# Aim: 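Fly genes whose loss lessens doxorubicin-driven cell death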 (primary screen)
# Cell system: Drosophila Kc cells
# Reagents: long dsRNA against Drosophila genes, 0.5 µg dsRNA per well
# Time to read-out: 96 h (48 h knock-down, then 48 h drug)
# Challenge: doxorubicin 5 µg/ml for 48 h, added 48 h after dsRNA
# Measurement: 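Luminescent ATP counts per replicate, not normalised, reflecting viable cells after 48 h dsRNA knock-down followed by 48 h of 5 µg/ml doxorubicin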
# Direction: raw ATP luminescence: higher = more viable cells, protection from doxorubicin
# Hit rule: 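z-score of 2 or more over plate mean in both duplicates, retained only when retests and separate dsRNAs confirm the protection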
# The deposit covers about 19,000 reagents; shown is a random part of those that have a named target and a result. In the full data, 47 (0.25%) were called active. 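Signals are raw, not normalised; exact z-scores behind calls not deposited; actives needed confirmation, so some wells reaching 2 SD are inactive.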 Reagents against one gene are numbered here. Names joined by + are all predicted targets of the reagent. No sequences are given here.
gene knocked down,reagent no.,"raw ATP luminescence, replicate 1","raw ATP luminescence, replicate 2",Call
Vps11,1,62107,51223,inactive
w-cup,1,38533,84617,inactive
S-Lap2,1,79763,71783,inactive
elg1,1,18470,21647,inactive
CG6839,1,18543,19533,inactive
Pfas,1,1.06e5,65277,inactive
CG5255,1,77070,80400,inactive
Ctr1C,1,59120,43910,inactive
CG1236,1,46680,15607,inactive
CG31612,1,50280,49680,inactive
CG31612,2,45950,51623,inactive
MESR3,1,43983,40633,inactive
CG34221,1,41643,64397,inactive
CG14414,1,3.08e5,2.86e5,inactive
SkpF + CG5357 (retired record),1,58753,51697,inactive
CG14823,1,46090,43930,inactive
Xpc,1,67373,67180,inactive
Nnk,1,47860,39480,inactive
CG13510,1,51903,73370,inactive
CG11885,1,1.56e5,2.14e5,inactive
CG10738,1,68197,71437,inactive
CG32462,1,22790,39083,inactive
Culd,1,42797,50660,inactive
CG17660,1,90167,69560,inactive
CG14380,1,79130,60830,inactive
sals,1,48690,28267,inactive
sals,2,50060,48630,inactive
CG18231,1,76483,53117,inactive
CG15115,1,1.80e5,2.01e5,inactive
Octbeta1R,1,38610,35700,inactive
eIF2D,1,2.05e5,1.85e5,inactive
tomboy40,1,67403,63657,inactive
Sps2,1,44757,76920,inactive
CG42749,1,38590,49130,inactive
CG42749,2,40910,41840,inactive
Pop4,1,69123,82830,inactive
Prosbeta7,1,41520,23437,inactive
TP53INP,1,39987,47067,inactive
zye,1,77427,70903,inactive
Cyp313a1,1,76660,77210,inactive
Ada1-1 + Ada1-2,1,2.86e5,3.08e5,inactive
Ada1-1 + Ada1-2,2,2.80e5,2.48e5,inactive
aralar1,1,2.99e5,2.70e5,inactive
CG10543,1,41567,45607,inactive
east,1,36490,34620,inactive
tor,1,52447,82273,inactive
CG9286,1,57523,36497,inactive
Rm62,1,45513,17570,inactive
CG7222,1,55267,56013,inactive
Stat92E,1,53773,54237,inactive
CG44325,1,35530,33480,inactive
CG17742 (retired record),1,31433,45543,inactive
CG5445,1,1.11e5,1.25e5,inactive
CG18635,1,1.76e5,2.04e5,inactive
CG11523,1,23750,23573,inactive
zormin,1,1.75e5,1.59e5,inactive
zormin,2,54513,55900,inactive
unc79,1,43020,37237,inactive
trx,1,48257,22503,inactive
Exn,1,23750,21477,inactive
Exn,2,50050,36933,inactive
CG11570,1,94087,94387,inactive
bcd + CR14578,1,2.84e5,2.44e5,inactive
CG9117,1,21910,22990,inactive
Vsp37A,1,41390,50660,inactive
Dsk,1,73070,70507,inactive
CG3565,1,65580,50933,inactive
CG13280,1,77627,69573,inactive
CG42232,1,36350,39400,inactive
CG42232,2,36467,36513,inactive
Gld2,1,16790,19000,inactive
PAN3,1,50610,44333,inactive
Cyt-c-d,1,47693,54227,inactive
lectin-37Da,1,68207,67880,inactive
CG3397,1,80777,38220,inactive
CG7512,1,63270,68517,inactive
FoxP,1,59640,54193,inactive
PIG-B,1,44827,31683,inactive
Gnptab,1,44883,78207,inactive
Shawl,1,43540,78837,inactive
Shawl,2,46280,81717,inactive
CG18262,1,35050,42570,inactive
CASK,1,65940,76720,inactive
CASK,2,53980,57720,inactive
CASK,3,53620,61420,inactive
Os-C,1,63303,54097,inactive
CG10208,1,57700,70840,inactive
CG15764,1,36620,44360,inactive
CG13457,1,37057,36100,inactive
CG34178 + CG34177,1,23110,26333,inactive
CG17028,1,98333,73310,inactive
Gyc32E,1,2.81e5,3.33e5,inactive
CG6908,1,63557,56013,inactive
CG9135,1,1.20e5,66480,inactive
Vps8,1,76850,74747,inactive
CG12398,1,2.46e5,1.97e5,inactive
CG14561,1,60577,43603,inactive
CG1418,1,39850,86620,inactive
CG12920,1,43487,73623,inactive
OtopLa,1,19470,29780,inactive
OtopLa,2,54360,50340,inactive
sav,1,89990,79530,inactive
sav,2,71650,68730,inactive
CG15522,1,45460,33100,inactive
CG11380,1,18980,19850,inactive
hook,1,83820,55340,inactive
CG30110,1,1.78e5,1.26e5,inactive
